Non-standard residues stand in square brackets, D forms with d. Phe(4-F) = N[C@@H](Cc1ccc(F)cc1)C(=O)O; 4Pal = N[C@@H](Cc1ccncc1)C(=O)O
How the values were obtained:
[1] = general procedure: Fmoc solid-phase peptide synthesis; Rink amide MBHA resin; Fmoc-Phe-ClTrt resin (0.4699 mmole/g); HCTU (double couplings); PyAOP/HOBt/DIEA for lactam formation; details: analytical HPLC
[2] = general procedure: Fmoc solid-phase peptide synthesis; Fmoc-4FPhe-ClTrt resin; HCTU (double couplings); PyAOP/HOBt/DIEA for lactam formation; details: whole synthesis, scale 0.2 mmol
[3] = general procedure: Fmoc solid-phase peptide synthesis; Fmoc-Phe-ClTrt resin; HCTU (double couplings); PyAOP/HOBt/DIEA for lactam formation; details: whole synthesis, analytical HPLC, scale 0.2 mmol
[4] = whole synthesis, scale of the general procedure 0.2 mmole (2×0.1 mmol each reaction vessel)

Row | Substance | final HPLC purity [1, 4] [%] | further results
1 | 1-[(ethan-2-oyl)-Doc-Doc-Tyr-psi(CH2NH)-cyclo(DLys-Arg-Phe-Phe-DTrp-Lys-Thr-Tyr)],4-[(propan-3-oyl)-Doc-Doc-Tyr-psi(CH2NH)-cyclo(DLys-Arg-Phe-Phe-DTrp-Lys-Thr-Tyr)]-1,2,3-triazole | 98.5 | 
2 | 1-[(ethan-2-oyl)-Tyr-psi(CH2NH)-cyclo(DLys-Arg-Phe-Phe-DTrp-Lys-Thr-4FPhe)],4-[(propan-3-oyl)-Tyr-psi(CH2NH)-cyclo(DLys-Arg-Phe-Phe-DTrp-Lys-Thr-4FPhe)]-1,2,3-triazole |  | final HPLC purity ([1]; conjugation step): 97.4%
3 | 1-[(ethan-2-oyl)-Tyr-psi(CH2NH)-cyclo(DLys-Arg-Phe-Phe-DTrp-Lys-Thr-Tyr)],4-[(propan-3-oyl)-Tyr-psi(CH2NH)-cyclo(DLys-Arg-Phe-Phe-DTrp-Lys-Thr-Tyr)]-1,2,3-triazole | 98.8 | 
4 | DTyr-cyclo(DLys-Arg-Phe-Phe-DTrp-Lys-Thr-4FPhe) | 98.8 | isolated yield ([2]; based on 0.2 mmol scale): 98.8%; isolated mass [2]: 123.1 mg
5 | Tyr-cyclo(DLys-Arg-Phe-4Pal-DTrp-Lys-Thr-Phe) | 98.8 | 
6 | Tyr-cyclo(DLys-Arg-Phe-4Pal-DTrp-Lys-Thr-Tyr) | 94.4 | 
7 | Tyr-psi(CH2NH)-cyclo(DLys-Arg-Phe-4Pal-DTrp-Lys-Thr-Phe) |  | final HPLC purity [3]: 97.5%
8 | cyclo([dK]RFF[dW]KTF) | 99.7 | 
9 | cyclo([dK]RFF[dW]KT[Phe(4-F)]) | 99.5 | 
10 | cyclo([dK]RF[4Pal][dW]KTF) | 98.9 | 
11 | cyclo([dK]RF[4Pal][dW]KTY) | 99.3 | 

From patent US9777039B2 (Ipsen Pharma S.A.S., priority 2012, dated 2017)
